## Primary screen of a compound library

Sequences of proteins named here, by UniProt entry; tags and fusion partners are left off. Residues count along the entry.
UniProt Q8IDJ8, 1-583: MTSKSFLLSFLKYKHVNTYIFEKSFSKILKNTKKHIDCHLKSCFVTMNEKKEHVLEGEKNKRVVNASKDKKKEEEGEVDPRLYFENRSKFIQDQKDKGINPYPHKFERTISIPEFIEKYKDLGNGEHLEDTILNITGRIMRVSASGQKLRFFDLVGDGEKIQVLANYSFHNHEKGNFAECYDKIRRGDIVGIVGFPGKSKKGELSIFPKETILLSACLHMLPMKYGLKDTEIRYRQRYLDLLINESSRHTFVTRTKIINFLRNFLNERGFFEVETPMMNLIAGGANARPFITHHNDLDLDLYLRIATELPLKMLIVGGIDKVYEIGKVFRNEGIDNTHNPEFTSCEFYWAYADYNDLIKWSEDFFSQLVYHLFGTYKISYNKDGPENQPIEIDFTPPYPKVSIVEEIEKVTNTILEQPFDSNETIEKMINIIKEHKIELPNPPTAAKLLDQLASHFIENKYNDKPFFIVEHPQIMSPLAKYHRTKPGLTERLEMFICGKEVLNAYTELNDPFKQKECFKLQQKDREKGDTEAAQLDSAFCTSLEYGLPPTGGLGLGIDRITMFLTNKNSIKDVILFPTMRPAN
UniProt P9WNZ1, whole entry: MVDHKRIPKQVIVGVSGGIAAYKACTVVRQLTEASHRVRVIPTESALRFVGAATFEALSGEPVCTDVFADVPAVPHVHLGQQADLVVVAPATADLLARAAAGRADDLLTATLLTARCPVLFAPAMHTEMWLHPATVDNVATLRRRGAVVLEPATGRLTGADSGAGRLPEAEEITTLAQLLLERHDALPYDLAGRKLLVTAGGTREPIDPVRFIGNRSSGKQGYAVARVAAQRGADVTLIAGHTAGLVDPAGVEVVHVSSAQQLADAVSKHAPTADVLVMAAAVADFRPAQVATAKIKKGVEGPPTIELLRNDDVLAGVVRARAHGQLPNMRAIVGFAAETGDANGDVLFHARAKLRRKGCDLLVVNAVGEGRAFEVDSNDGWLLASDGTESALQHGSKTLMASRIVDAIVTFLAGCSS

From ChEMBL document CHEMBL3988442, “University of Dundee, Small-Polar-MMV Screening Library” (2021).

PfKRS1: 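Enzyme assay of the cytosolic lysyl-tRNA synthetase in 384-well plates, read by luminescence. Target: Lysine-tRNA ligase, Plasmodium falciparum 3D7 (UniProt Q8IDJ8). Tested at 30 µM. Higher reads as stronger inhibition, judged from the few compounds that gave an IC50. About 69,000 compounds were tested under these conditions; 0.071% (about 49) showed 50% or more at least once.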
Toxoplasma: 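Assay of Toxoplasma gondii numbers, read through their beta-galactosidase reporter with a colour substrate. Tested at 10 µM. The record gives no direction; the compounds picked for IC50 retests had high values, so higher reads as fewer parasites. Size under these conditions: about 67,000 compounds, about 260 of them at 50% or above in at least one test.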
CoaBC: 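Enzyme assay of CoaBC with a phosphate dye (Biomol Green) read at 650 nm. Target: Coenzyme A biosynthesis protein CoaBC, Mycobacterium tuberculosis (UniProt P9WNZ1). Compounds at 30 µM. Direction is inferred from only a few compounds that gave an IC50; most scored high, so higher reads as stronger inhibition. Most strong results did not repeat in a second test. Size under these conditions: about 67,000 compounds, about 40 of them at 50% or above in at least one test.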

Values are the deposited “Percent Effect”, in %.
The record does not define 0% and 100%; most values in the screen are far below 50% and negative numbers occur (in some assays of this library far below -100).
The compounds are a random part of those screened.
A dash means the value is not listed here; it may have been measured.

compound | PfKRS1 | Toxoplasma | CoaBC
CC(=O)N1CCC2(CN(CC3CCCC3)C2)C1 | 5.598% | - | 5.852%
O=C(NC1CC1)C1=CC2(CCN(CC3CC3)CC2)c2ccccc21.O=C(O)C(F)(F)F | - | -1.96% | -
CC(C)OCCS(=O)(=O)NC1CCN(C2CCCC2)C1 (centres unmarked) | 0.5434% | 0.6772% | -1.276%
CC(C)CN1CCC2(CC1)C(=O)Nc1ccc(C(=O)NC(C)C)cc12 | 0.6482% | - | -2.716%
CC(C)N(C)C(=O)CSCc1ccc(S(=O)(=O)N(C)C)o1 | -0.3436% | -19.58% | -0.8403%
COc1ccc(CNC(=O)N2CCN(CC(O)C3CC3)CC2)cc1.Cl (centres unmarked) | - | -0.8203% | -
Cc1ncc2c(n1)CN(Cc1nnc(Cc3ccccc3)o1)CC2 | 2.74% | 7.324% | 13.83%
O=C(c1ccncc1F)N1Cc2nc(CN3CCCCC3)oc2C1 | 5.866% | - | 5.419%
CS(=O)(=O)c1ccc(NC(=O)NCc2ccc(F)cc2)cn1 | 5.071% | 4.854% | -
COCCN(CCOC)c1ncc(C#N)cc1Cl | 4.452% | -7.976% | -0.9206%
Cc1ccc(-c2nc(CN3CCOC(Cn4cccn4)C3)cs2)o1 (centres unmarked) | -4.093% | -0.9233% | 13.01%
CCCn1nnnc1COc1cc(OC)ccc1C(N)=O | 2.69% | 7.519% | 8.015%
N#CCCN(CCC#N)C(=O)c1cccc(N2CCNC2=O)c1 | 0.2055% | -38.25% | -4.866%
CN(Cc1cccnc1)C[C@H]1CC[C@@H](Cc2ccc3c(cnn3C)c2)O1 | -1.742% | -3.21% | 8.065%
Cc1ccc(CCN2C(=O)CC[C@H]3CN(Cc4cnn(C)c4)CC[C@H]32)o1 | 8.058% | - | 2.788%
CN(CCc1ccccc1)c1cnn(C)c(=O)c1Br | 2.341% | -13.67% | 2.133%
CCc1nnc(SCc2cc(=O)n3c4c(sc3n2)CCCC4)[nH]1 | 3.654% | 4.717% | -2.3%
COCC1c2nnn(CC3CC3)c2CCN1C(=O)CS(C)(=O)=O (centres unmarked) | 4.624% | 10.96% | 7.477%
Cc1nc(O)cc(CCNC(=O)CC[C@@H]2CCCN3CCCC[C@H]23)n1 | 0.8949% | - | 5.556%
Cc1nc(CN2C[C@@H]3CN(C(=O)c4cnccn4)C[C@@H]3C2=O)cs1 | -5.248% | - | 2.538%
O=C(c1cccs1)N1C[C@@H]2OCCN(CC3CCCO3)[C@@H]2C1 (some centres unmarked) | 4.167% | - | 0.3699%
O=c1c(CN2CCOCC2)coc(O)c1CN1CCOCC1 | 3.261% | - | 1.094%
Cc1ccc(OCC2CCCN(C(=O)c3csc(CN(C)C)n3)C2)cc1 (centres unmarked) | 7.65% | 22.93% | -1.75%
Cc1cc(CN2CCN(CC(O)c3ccccc3)CC2)no1 (centres unmarked) | 8.26% | - | -2.057%
COCCN1CCC(CNc2cnc3ccccc3n2)CC1 | 4.124% | -11.03% | -12.9%
CCN(c1ccccc1)S(=O)(=O)c1cc(C(=O)O)cc2c1CCC2 | 3.031% | -1.941% | -
CN1CCc2nc(C3CCCN(S(=O)(=O)c4ccccc4)C3)ncc2C1 (centres unmarked) | 0.8869% | 11.78% | -31.48%
CCOc1ccc(-n2ccc3nc(N4CCCC4)ncc3c2=O)cc1 | 5.751% | 19.13% | -7.923%
CCc1c(C)n(CC(C)=O)c2nc3ccccc3n2c1=O | 2.152% | 21.05% | -1.651%
CC(C)c1ccnc(N[C@H]2COC[C@@H]2N2CCCC2)n1 | 7.102% | -13.12% | 3.354%
NC(=O)Cn1cc(NC(=O)N2CCSCC2)cn1 | 0.1468% | 29.82% | 3.069%
CC(C)N(CCNCc1ccc(C#N)cc1)C1CC1 | 1.07% | 5.015% | -7.78%
Cc1ccc(CN(C(=O)c2cccc(NC(N)=O)c2)C2CC2)o1 | -1.367% | 2.164% | 0.2484%
O=C(CCC(=O)N1CCC(Oc2ncccc2Br)CC1)c1ccccc1 | 5.245% | -3.239% | -4.202%
NC(=O)C1CN(C(=O)Nc2ccccc2N2CCCCCC2)CCO1 (centres unmarked) | 2.541% | 5.708% | 13.83%
CC(Cn1cncc1-c1cnn(Cc2ccccc2)c1)N1CCCCC1 (centres unmarked) | 0.859% | - | -4.358%

The first 3 entries again:

* CC(=O)N1CCC2(CN(CC3CCCC3)C2)C1 : PfKRS1: 5.598%; CoaBC: 5.852%
* O=C(NC1CC1)C1=CC2(CCN(CC3CC3)CC2)c2ccccc21.O=C(O)C(F)(F)F : Toxoplasma: -1.96%
* CC(C)OCCS(=O)(=O)NC1CCN(C2CCCC2)C1 (centres unmarked) : PfKRS1: 0.5434%; Toxoplasma: 0.6772%; CoaBC: -1.276%